# Measurements as given in paper PMC11994786.
# Protein sequences, listed by entry. Tags and fused reporters are not part of them.
# UniProt P69566: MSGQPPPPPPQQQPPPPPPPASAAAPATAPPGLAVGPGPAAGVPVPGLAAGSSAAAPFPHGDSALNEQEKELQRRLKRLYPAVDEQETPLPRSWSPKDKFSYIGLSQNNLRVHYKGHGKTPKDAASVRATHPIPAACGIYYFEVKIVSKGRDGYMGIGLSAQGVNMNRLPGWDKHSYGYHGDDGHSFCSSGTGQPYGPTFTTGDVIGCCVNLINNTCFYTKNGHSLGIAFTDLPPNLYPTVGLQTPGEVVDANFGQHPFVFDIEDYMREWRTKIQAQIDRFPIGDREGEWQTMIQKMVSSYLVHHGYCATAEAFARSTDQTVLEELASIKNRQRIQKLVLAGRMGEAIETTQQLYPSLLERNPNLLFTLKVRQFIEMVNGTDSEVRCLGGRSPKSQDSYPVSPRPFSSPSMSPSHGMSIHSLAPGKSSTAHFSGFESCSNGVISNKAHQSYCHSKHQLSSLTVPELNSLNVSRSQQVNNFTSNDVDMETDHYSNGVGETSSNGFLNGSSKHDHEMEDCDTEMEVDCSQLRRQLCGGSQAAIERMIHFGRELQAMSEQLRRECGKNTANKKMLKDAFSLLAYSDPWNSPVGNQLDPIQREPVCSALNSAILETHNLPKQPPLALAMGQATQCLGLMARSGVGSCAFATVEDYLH
# B1: Got2 (protein, UniProt P05202 30-430)
# chain: SSWWTHVEMGPPDPILGVTEAFKRDTNSKKMNLGVGAYRDDNGKPYVLPSVRKAEAQIAAKNLDKEYLPIGGLAEFCKASAELALGENNEVLKSGRFVTVQTISGTGALRVGASFLQRFFKFSRDVFLPKPSWGNHTPIFRDAGMQLQGYRYYDPKTCGFDFSGALEDISKIPEQSVLLLHACAHNPTGVDPRPEQWKEIASVVKKKNLFAFFDMAYQGFASGDGDKDAWAVRHFIEQGINVCLCQSYAKNMGLYGERVGAFTVVCKDAEEAKRVESQLKILIRPLYSNPPLNGARIAATILTSPDLRKQWLQEVKGMADRIISMRTQLVSNLKKEGSSHNWQHITDQIGMFCFTGLKPEQVERLTKEFSVYMTKDGRISVAGVTSGNVGYLAHAIHQVTK
# B2: Acaa2 (protein, UniProt Q8BWT1 1-397)
# chain: MALLRGVFIVAAKRTPFGAYGGLLKDFSATDLTEFAARAALSAGKVPPETIDSVIVGNVMQSSSDAAYLARHVGLRVGVPTETGALTLNRLCGSGFQSIVSGCQEICSKDAEVVLCGGTESMSQSPYCVRNVRFGTKFGLDLKLEDTLWAGLTDQHVKLPMGMTAENLAAKYNISREDCDRYALQSQQRWKAANEAGYFNEEMAPIEVKTKKGKQTMQVDEHARPQTTLEQLQKLPSVFKKDGTVTAGNASGVSDGAGAVIIASEDAVKKHNFTPLARVVGYFVSGCDPTIMGIGPVPAINGALKKAGLSLKDMDLIDVNEAFAPQFLSVQKALDLDPSKTNVSGGAIALGHPLGGSGSRITAHLVHELRRRGGKYAVGSACIGGGQGIALIIQNTA
# B3: Mdh2 (protein, UniProt P08249 25-338)
# chain: AKVAVLGASGGIGQPLSLLLKNSPLVSRLTLYDIAHTPGVAADLSHIETRANVKGYLGPEQLPDCLKGCDVVVIPAGVPRKPGMTRDDLFNTNATIVATLTAACAQHCPEAMVCIIANPVNSTIPITAEVFKKHGVYNPNKIFGVTTLDIVRANTFVAELKGLDPARVNVPVIGGHAGKTIIPLISQCTPKVDFPQDQLATLTGRIQEAGTEVVKAKAGAGSATLSMAYAGARFVFSLVDAMNGKEGVVECSFVQSKETECTYFSTPLLLGKKGLEKNLGIGKITPFEEKMIAEAIPELKASIKKGEDFVKNMK
# B4: Prdx5 (Peroxiredoxin 5) (protein, UniProt P99029 49-210)
# chain: MAPIKVGDAIPSVEVFEGEPGKKVNLAELFKGKKGVLFGVPGAFTPGCSKTHLPGFVEQAGALKAKGAQVVACLSVNDVFVIEEWGRAHQAEGKVRLLADPTGAFGKATDLLLDDSLVSLFGNRRLKRFSMVIDNGIVKALNVEPDGTGLTCSLAPNILSQL
# B5: Vat1 (protein, UniProt Q62465 1-406)
# chain: MSAEREAAEAATVAAATEAGAETGTGAGEGAPSQPPTVEVASDPQPPPAPEASASASAPPLRCLVLTGFGGYDKVKLQSRPAVPPAPGPGQLTLRVRACGLNFADLMGRQGLYDRLPPLPVTPGMEGAGVVVAVGEGVGDRKAGDRVMVLNRSGMWQEEVTVPSAQTFLMPEAMTFEEAAALLVNYITAYMVLFDFGNLRPGHSVLVHMAAGGVGMAALQLCRTVENVTVFGTASASKHEVLKENGVTHPIDYHTTDYVDEIKKISPKGVDIVMDPLGGSDTAKGYHLLKPMGKVVTYGMANLLTGPKRNLMAMARTWWNQFSVTALQLLQANRAVCGFHLGYLDGEVELVNSVVTRLVALYNQGHIKPRIDSVWPFEKVADAMKQMQEKKNIGKVLLVPGPEKET
# B6: Qdpr (Quinoid Dihydropteridine Reductase) (protein, UniProt Q8BVI4 1-241)
# chain: MAASGEARRVLVYGGRGALGSRCVQAFRARNWWVASIDVVENEEASASVVVKMTDSFTEQADQVTADVGKLLGDQKVDAILCVAGGWAGGNAKSKSLFKNCDMMWKQSMWTSTISSHLATKHLKEGGLLTLAGAKAALDGTPGMIGYGMAKGAVHQLCQSLAGKNSGMPPGAAAIAVLPVTLDTPMNRKSMPEADFSSWTPLEFLVETFHDWITGNKRPNSGSLIQVVTTDGKTELTPAYF
# B7: Pgam1 (Phosphoglycerate mutase 1) (protein, UniProt Q9DBJ1 1-254)
# chain: MAAYKLVLIRHGESAWNLENRFSGWYDADLSPAGHEEAKRGGQALRDAGYEFDICFTSVQKRAIRTLWTVLDAIDQMWLPVVRTWRLNERHYGGLTGLNKAETAAKHGEAQVKIWRRSYDVPPPPMEPDHPFYSNISKDRRYADLTEDQLPSCESLKDTIARALPFWNEEIVPQIKEGKRVLIAAHGNSLRGIVKHLEGLSEEAIMELNLPTGIPIVYELDKNLKPIKPMQFLGDEETVRKAMEAVAAQGKVKK
# B8: Uqcrb (protein, UniProt Q9D855 1-111)
# chain: MAGRSAVSASSKWLDGFRKWYYNAAGFNKLGLMRDDTLHETEDVKEAIRRLPEDLYNDRMLRIKRALDLTMRHQILPKDQWTKYEEDKFYLEPYLKEVIRERKEREEWAKK
# B9: Dpm3 (protein, UniProt Q9D1Q4 1-92)
# chain: MTKLTQWLWGLALLGSAWAALTMGALGLELPFPCREVLWPLPAYLLVSAGCYALGTVGYRVATFHDCEDAARELQSQIVEARADLARRGLRF
# B10: Trip13 (protein, UniProt Q3UA06 1-432)
# chain: MDEAVGDLKQALPCVAESPAVHVEVLQRSGSTAKKEDIKSSVYRLLNRHNIVFGDYVWTEFDDPFLSRNVQSVSIVDTELKAKDPQPIDLSACTIALHIFQLNEEGPSSENLDEETENIIAASHWVLPAAEFHGLWDSLVYDVEVKSHLLDYVMTTVLFSDKNVDSNLITWNRVVLLHGPPGTGKTSLCKALAQKLTIRLSSRYRYGQLIEINSHSLFSKWFSESGKLVTKMFQKIQDLIDDKEALVFVLIDEVESLTAARNACRAGAEPSDAIRVVNAVLTQIDQIKRHSNVVILTTSNITEKIDVAFVDRADIKQYIGPPSAAAIFKIYLSCLEELMKCQIIYPRQQLLTLRELEMIGFIENNVSKLSLLLSEISRKSEGLSGRVLRKLPFLAHALYIQAPSVTIEGFLQALSLAVDKQFEEKKKLSAYV
# B11: Atp5po (ATP synthase peripheral stalk subunit OSCP) (protein, UniProt Q9DB20 24-213)
# chain: FAKLVRPPVQVYGIEGRYATALYSAASKEKKLDQVEKELLRVGQLLKDPKVSLAVLNPYIKRTVKVKSLNDITKREKFSPLTANLMNLLAENGRLGNTQGIISAFSTIMSVHRGEVPCTVTTASPLDDAVLSELKTVLKSFLSPNQILKLEIKTDPSIMGGMIVRIGEKYVDMSAKSKIQKLSKAMREML
# B12: Acot2 (protein, UniProt Q9QYR9 43-453)
# chain: NATLSVEPEGRSCWDEPLSIAVRGLAPEQPVTLRSALRDEKGALFRAHARYRADAGGELNLARAPALGGSFSGLEPMGLLWAMEPERPLWRLIKRDVQTPFLVELEVLDGHEPDGGQRLAQAVHERHFLAPGVRRVPVREGRVRATLFLPPEPGPFPGIIDLFGVGGGLLEYRASLLAGKGFAVMALAYYNYDDLPKSIETMHMEYFEEAVNYLRSHPEVKGPGIGLLGISKGGELGLAMASFLKGITAAVVINGSVAAVGNTISYKDETIPPVSLLRNQVKMTKDGLLDVVEALQSPLVDKKSFIPVERSDTTFLFLVGQDDHNWKSEFYADEISKRLQAHGKEKPQIICYPAAGHYIEPPYFPLCSAGMHLLVGANITFGGEPRAHAVAQVDAWQQLQTFFHKQLGSKS
# B13: Mccc1 (Methylcrotonyl-CoA Carboxylase subunit 1) (protein, UniProt Q99MR8 39-717)
# chain: TTPGGSITKVLIANRGEIACRVIRTAKKMGVQSVAVYSEADRNSMHVDMADEAYSIGPAPSQQSYLAMEKIIQVAKSSAAQAIHPGYGFLSENMEFAELCKQEGIIFIGPPSSAIRDMGIKSTSKSIMAAAGVPVVEGYHGKDQSDQCLREHAGKIGYPVMIKAVRGGGGKGMRIVRSEREFQEQLESARREAKKSFNDDAMLIEKFVDTPRHVEVQVFGDHHGNAVYLFERDCSVQRRHQKIIEEAPAPGINPEVRRKLGEAAVRAAKAVKYVGAGTVEFIMDSRHNFYFMEMNTRLQVEHPVTEMITGTDLVEWQLRIAAGEKIPLSQEEIPLQGHAFEARIYAEDPDNNFMPGAGPLVHLSTPSADMSTRIETGVRQGDEVSVHYDPMIAKLVVWASDRQSALSKLRYCLHQYNIVGLRSNVDFLLRLSGHPEFEAGNVHTDFIPQHHKDLLPSHSTIAKESVCQAALGLILKEKEMTSAFKLHTQDQFSPFSFSSGRRLNISYTRNMTLRSGKSDIVIAVTYNRDGSYDMQIDNKSFRVLGDLSSEDGCTYLKSSINGVARKSKFILLDNTVHLFSMEGSIEVGIPVPKYLSPVSAEGAQGGTIAPMTGTIEKVFVKAGDRVKAGDSLMVMIAMKMEHTIKAPKDGRIKKVFFSEGAQANRHAPLVEFEEEESDK
# B14: Cyb5b (protein, UniProt Q9CQX2 12-146)
# chain: KVEGSEPSVTYYRLEEVAKRNSAEETWMVIHGRVYDITRFLSEHPGGEEVLLEQAGADATESFEDVGHSPDAREMLKQYYIGDVHPSDLKPKGDDKDPSKNNSCQSSWAYWFVPIVGAILIGFLYRHFWADSKSS
# B15: Cux1 (Cut Like Homeobox 1) (protein, UniProt H3BJN3 1-678)
# chain: MAANVGSMFQYWKRFDLQQLQRELDATATVLANRQDESEQSRKRLIEQSREFKKNTPEDLRKQVAPLLKSFQGEIDALSKRSKEAEAAFLTVYKRLIDVPDPVPALDVGQQLEIKVQRLHDIETENQKLRETLEEYNKEFAEVKNQEVTIKALKEKIREYEQTLKSQAETIALEKEQKLQNDFAEKERKLQETQMSTTSKLEEAEHKLQTLQTALEKTRTELFDLKTKYDEETTAKADEIEMIMTDLERANQRAEVAQREAETLREQLSSANHSLQLASQIQKAPDVEQAIEVLTRSSLEVELAAKEREIAQLVEDVQRLQASLTKLRENSASQISQLEQQLNAKNSTLKQLEEKLKGQADYEEVKKELNTLKSMEFAPSEGAGTQDSTKPLEVLLLEKNRSLQSENATLRISNSDLSGRCAELQIHLTEATAKAVEQKELIARLEQDLSTIQSIQRPDAEGASEQGLEKIPEPIKEATALFYGPSMSSSGTLPEGQVDSLLSIISSQRERFRTRNQELEAESRMAQHTIQALQSELDSLRADNIKLFEKIKFLQSYPGRGIGSDDTELRYSSQYEERLDPFSSFSKRERQRKYLGLSPWDKATLGMGRLILSNKMARTISFFYTLFLHCLVFLVLYKLAWSESVERDCAATCAKKFADHLHKFHESDNGAAAGDLWQ
# Molecular target: RanBP9-V5 (Ran Binding Protein 9 with a V5 tag at the C-terminus) (mouse) (UniProt P69566)
# Assay: affinity purification with mass spectrometry; anti-V5 magnetic beads on 1 mg pre-cleared whole lung lysate of LysMBP9X mice, overnight at 4 °C, on-bead trypsin digestion, LC-MS/MS; hits significant (p ≤ 0.05) against V5-IP from WT mice and Ig-IPs
row,binding,Binder
1,binds,B1
2,binds,B2
3,binds,B3
4,binds,B4
5,binds,B5
6,binds,B6
7,binds,B7
8,binds,B8
9,binds,B9
10,binds,B10
11,binds,B11
12,binds,B12
13,binds,B13
14,binds,B14
15,binds,B15

# Molecular target: RanBP9-3xHA (Ran Binding Protein 9 fused to three copies of the HA tag) (mouse) (UniProt P69566)
# Assay: affinity purification with mass spectrometry; anti-HA magnetic beads on 1 mg pre-cleared whole lung lysate of LysMBP9X mice, overnight at 4 °C, on-bead trypsin digestion, LC-MS/MS; hits significant (p ≤ 0.05) against HA-IP from WT mice and Ig-IPs
row,binding,Binder
1,binds,B11
2,binds,B13

# Results are given in words; binding and its absence hold for the method and conditions named. Binding seen in cells or lysates may run through a third protein. These calls come from enrichment with a bait or labelling near it, and not all partners need be listed.
